{"source": "the supplement of paper PMC8728848", "assay_in_all_cases": "glycan array binding signal (z-score within array); higher = stronger binding", "conditions_in_all_cases": "glycan notation: IUPAC condensed, linker removed; mutation: D21K", "key": {"[1]": {"molecular_target": "GlcNAc(b1-3)Gal(b1-4)GlcNAc(b1-3)[GlcNAc(b1-3)Gal(b1-4)GlcNAc(b1-3)]GalNAc", "outline": "(§1)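 The binding signal is a Z-score computed within each array and averaged over linkers. Arrays of the same protein sequence at different concentrations or buffers were also averaged together. Data originate from 3228 arrays in the Consortium for Functional Glycomics database, kept only where the protein sequence was available.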"}, "[2]": {"molecular_target": "GlcNAc(b1-3)Gal(b1-4)GlcNAc(b1-6)[Gal(b1-3)]GalNAc", "outline": "as §1"}, "[3]": {"molecular_target": "GlcNAc(b1-3)Gal(b1-4)GlcNAc(b1-6)[GlcNAc(b1-3)Gal(b1-3)]GalNAc", "outline": "as §1"}, "[4]": {"molecular_target": "GlcNAc(b1-3)Gal(b1-4)GlcNAc(b1-6)[GlcNAc(b1-3)]Gal(b1-4)GlcNAc", "outline": "as §1"}, "GlcNAc(b1-3)GalNAc": {"molecular_target": "GlcNAc(b1-3)GalNAc", "outline": "as §1"}, "GlcNAc(b1-3)Man": {"molecular_target": "GlcNAc(b1-3)Man", "outline": "as §1"}, "[5]": {"molecular_target": "GlcNAc(b1-3)[GlcNAc(b1-4)][GlcNAc(b1-6)]GlcNAc", "outline": "as §1"}, "[6]": {"molecular_target": "GlcNAc(b1-3)[GlcNAc(b1-6)]Gal(b1-4)GlcNAc", "outline": "as §1"}, "[7]": {"molecular_target": "GlcNAc(b1-3)[GlcNAc(b1-6)]GalNAc", "outline": "as §1"}, "[8]": {"molecular_target": "GlcNAc(b1-4)Gal(b1-4)GlcNAc", "outline": "as §1"}, "GlcNAc(b1-4)GlcNAc": {"molecular_target": "GlcNAc(b1-4)GlcNAc", "outline": "as §1"}, "[9]": {"molecular_target": "GlcNAc(b1-4)GlcNAc(b1-4)GlcNAc", "outline": "as §1"}, "[10]": {"molecular_target": "GlcNAc(b1-4)GlcNAc(b1-4)GlcNAc(b1-4)GlcNAc(b1-4)GlcNAc", "outline": "as §1"}, "[11]": {"molecular_target": "GlcNAc(b1-4)GlcNAc(b1-4)GlcNAc(b1-4)GlcNAc(b1-4)GlcNAc(b1-4)GlcNAc", "outline": "as §1"}, "[12]": {"molecular_target": "GlcNAc(b1-4)[GlcNAc(b1-6)]GalNAc", "outline": "as §1"}, "[13]": {"molecular_target": "GlcNAc(b1-6)Gal(b1-4)GlcNAc", "outline": "as §1"}, "GlcNAc(b1-6)GalNAc": {"molecular_target": "GlcNAc(b1-6)GalNAc", "outline": "as §1"}, "[14]": {"molecular_target": "GlcNAc6S(b1-3)Gal(b1-4)GlcNAc", "outline": "as §1"}, "Kdn(a2-3)Gal(b1-3)GalNAc": {"molecular_target": "Kdn(a2-3)Gal(b1-3)GalNAc", "outline": "as §1"}, "Kdn(a2-3)Gal(b1-3)GlcNAc": {"molecular_target": "Kdn(a2-3)Gal(b1-3)GlcNAc", "outline": "as §1"}, "Kdn(a2-3)Gal(b1-4)Glc": {"molecular_target": "Kdn(a2-3)Gal(b1-4)Glc", "outline": "as §1"}, "Kdn(a2-3)Gal(b1-4)GlcNAc": {"molecular_target": "Kdn(a2-3)Gal(b1-4)GlcNAc", "outline": "as §1"}, "[15]": {"molecular_target": "Kdn(a2-3)Gal(b1-4)[Fuc(a1-3)]GlcNAc", "outline": "as §1"}, "Kdn(a2-6)Gal(b1-4)GlcNAc": {"molecular_target": "Kdn(a2-6)Gal(b1-4)GlcNAc", "outline": "as §1"}, "[16]": {"molecular_target": "Man(a1-2)Man(a1-2)Man(a1-3)Man", "outline": "as §1"}, "[17]": {"molecular_target": "Man(a1-2)Man(a1-2)Man(a1-6)[Man(a1-3)]Man", "outline": "as §1"}, "Man(a1-2)Man(a1-3)Man": {"molecular_target": "Man(a1-2)Man(a1-3)Man", "outline": "as §1"}}, "note": "The other results are listed elsewhere or left out."}
{"binder": "KILRGVCKKIMRTFLRRISKKILTGKK", "note": "[C7A (Sus scrofa)]", "values": [{"measurement": "glycan array binding signal (z-score)", "setting": "[1]", "result": 1.12}, {"measurement": "glycan array binding signal (z-score)", "setting": "[2]", "result": 1.57}, {"measurement": "glycan array binding signal (z-score)", "setting": "[3]", "result": -0.629}, {"measurement": "glycan array binding signal (z-score)", "setting": "[4]", "result": -0.948}, {"measurement": "glycan array binding signal (z-score)", "setting": "GlcNAc(b1-3)GalNAc", "result": -2.16}, {"measurement": "glycan array binding signal (z-score)", "setting": "GlcNAc(b1-3)Man", "result": -0.082}, {"measurement": "glycan array binding signal (z-score)", "setting": "[5]", "result": -0.24}, {"measurement": "glycan array binding signal (z-score)", "setting": "[6]", "result": 0.238}, {"measurement": "glycan array binding signal (z-score)", "setting": "[7]", "result": -0.602}, {"measurement": "glycan array binding signal (z-score)", "setting": "[8]", "result": 1.54}, {"measurement": "glycan array binding signal (z-score)", "setting": "GlcNAc(b1-4)GlcNAc", "result": -0.608}, {"measurement": "glycan array binding signal (z-score)", "setting": "[9]", "result": -0.068}, {"measurement": "glycan array binding signal (z-score)", "setting": "[10]", "result": 0.412}, {"measurement": "glycan array binding signal (z-score)", "setting": "[11]", "result": 0.039}, {"measurement": "glycan array binding signal (z-score)", "setting": "[12]", "result": -1.04}, {"measurement": "glycan array binding signal (z-score)", "setting": "[13]", "result": -0.292}, {"measurement": "glycan array binding signal (z-score)", "setting": "GlcNAc(b1-6)GalNAc", "result": -0.216}, {"measurement": "glycan array binding signal (z-score)", "setting": "[14]", "result": 0.682}, {"measurement": "glycan array binding signal (z-score)", "setting": "Kdn(a2-3)Gal(b1-3)GalNAc", "result": 1.21}, {"measurement": "glycan array binding signal (z-score)", "setting": "Kdn(a2-3)Gal(b1-3)GlcNAc", "result": 1.28}, {"measurement": "glycan array binding signal (z-score)", "setting": "Kdn(a2-3)Gal(b1-4)Glc", "result": 0.545}, {"measurement": "glycan array binding signal (z-score)", "setting": "Kdn(a2-3)Gal(b1-4)GlcNAc", "result": -1.57}, {"measurement": "glycan array binding signal (z-score)", "setting": "[15]", "result": 0.071}, {"measurement": "glycan array binding signal (z-score)", "setting": "Kdn(a2-6)Gal(b1-4)GlcNAc", "result": 1.01}, {"measurement": "glycan array binding signal (z-score)", "setting": "[16]", "result": -1.34}, {"measurement": "glycan array binding signal (z-score)", "setting": "[17]", "result": 1.14}, {"measurement": "glycan array binding signal (z-score)", "setting": "Man(a1-2)Man(a1-3)Man", "result": -2.25}]}
